Reference: patent publication US20190153103A1
These are yes or no findings as the source states them, for the method shown. Some binding calls cover weakened binding; strength is not graded here. For part of these data: Tags and fused reporters may be left off the sequences shown.

Sequences of proteins named here, by UniProt entry; tags and fusion partners are left off. A change or cut given only in a name is not applied to a line headed by its entry.
UniProt O00238: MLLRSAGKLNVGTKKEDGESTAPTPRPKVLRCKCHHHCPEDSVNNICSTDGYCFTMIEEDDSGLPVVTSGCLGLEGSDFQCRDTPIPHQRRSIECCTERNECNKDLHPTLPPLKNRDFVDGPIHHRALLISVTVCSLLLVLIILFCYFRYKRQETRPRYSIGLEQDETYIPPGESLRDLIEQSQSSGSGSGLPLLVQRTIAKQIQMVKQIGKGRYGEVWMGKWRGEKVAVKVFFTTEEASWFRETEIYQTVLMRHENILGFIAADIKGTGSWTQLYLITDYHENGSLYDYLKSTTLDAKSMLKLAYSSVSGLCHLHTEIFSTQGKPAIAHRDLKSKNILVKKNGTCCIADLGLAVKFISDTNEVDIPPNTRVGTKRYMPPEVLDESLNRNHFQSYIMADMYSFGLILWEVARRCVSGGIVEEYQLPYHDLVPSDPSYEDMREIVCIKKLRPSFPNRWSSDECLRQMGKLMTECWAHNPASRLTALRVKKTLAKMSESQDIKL

T1: rat-his
T1 sequence: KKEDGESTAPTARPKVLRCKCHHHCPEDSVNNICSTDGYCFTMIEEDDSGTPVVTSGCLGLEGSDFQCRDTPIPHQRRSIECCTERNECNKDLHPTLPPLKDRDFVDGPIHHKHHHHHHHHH


Assays:
[1] = target: human BMPR1B coated on MSD plates (construct not stated) (human) (UniProt O00238); test: MSD ELISA, antibody titrated, BMP4 blocked
[2] = target: human BMPR1B coated on MSD plates (construct not stated) (human) (UniProt O00238); test: MSD ELISA, antibody titrated, BMP2 blocked
rat-his = target: T1, rat-his; test: Biacore

| Binder | binding [1] | binding [2] | binding (rat-his) |
| --- | --- | --- | --- |
| SC91.1 (murine anti-BMPR1B antibody) (antibody, V domains shown) VH: QVQLQQPGAELVKPGASVKLSCKASGYTFTSYWMQWVKQRPGQGLEWIGEIDPSDNYTLYNQKFKGKATLTVDTSSSTAYMQLSSLTSEDSAVYYCARFGYYVDYWGLGTTLTVSS VL: DVVMTQTPLSLPVSLGDQASIFCRSSQSLVHSTGNTYLHWYLQKPGQSPKLLIYKVSNRFSGVPDRFSGSGSGTDFTLKISRVEAEDLGVYFCSQSTHVPFTFGSGTKLEIK | binds | binds | – |
| SC91.9 (murine anti-BMPR1B antibody) (antibody, V domains shown) VH: QVQLQQPGAELVKPGASVKLSCKASGYTFISYWMHWVKQRPGQGLEWIGMIHPNSGSTNYNESFKSKATLTVDKSSSTAYMQLSSLTSEDSAVYYCARDLLIATVVVTPYFAYWGQGTILTVSS VL: DIQMTQTTSSLSASLGDRVTISCRASQDISNFLNWYQQKPDGTIKFLIYYTSRLHSGVPSRFSGSGSGTDYSLTIRNLEQEDIATYFCQQGNTLPYTFGGGTKLEIK | binds | binds | – |

More lines, now with the values ahead:

| binding [1] | binding [2] | binding (rat-his) | Binder |
| --- | --- | --- | --- |
| binds | – | – | SC91.19 (antibody, V domains shown) VH: QIQLVQSGPELKKPGETVKISCKASGYTFTTYGMNWVKQAPGKGLKWMGWINTYSGVPSSANDFKGRFAFSLETSASTAYLQINNLKNEDTATYFCARSELRNWYFDVWGTGTTVTVSS VL: SFVMTQTPKFLLVSAGDRVTITCKASQSVGNDVAWYQQKPGQSPKLLIYYASNRYTGVPDRFTGSGYGTDFTFTISTVQAEDLAVYFCQQDYSSPFTFGSGTKLEMK |
| – | – | binds | SC91.111 (antibody, V domains shown) VH: QIQLVQSGPELKKPGETVKISCKASGYTLTTYGMNWVKQAPGKGLKWMGWINTYSGVPAYADDFKGRFAFSLETSASTAYLQINNFKNEDTATYFCARSELRNWYFDVWGTGTTVTVSS VL: SFVMTQTPKFLLVSAGDRVTITCKASQNMGHNVAWYQQKPGQSPKLLIYYASNRYTGVPDRFTGSGYGTDFTFTISTVQAEDLAVYFCQQDYSSPFTFGSGTKLEIK |
